{"source": "patent US6340560B1", "about": "“Aminopolycarboxylic acid chelating agent, heavy metal chelate compound thereof, photographic additive and processing method” (Fuji Photo Film Co., Ltd., priority 1996, dated 2002)", "key": {"[1]": {"assay": "Example 1: residual silver in highest density part after running bleach-fixing process (NBlix), fluorescent X-ray analysis", "details": "chelating agent 0.17 mol/l with ferric nitrate in bleach-fixing bath, 110 sec, 45° C."}, "[2]": {"assay": "Example 1: bleaching fog, Dmin (G light) versus standard bleaching solution", "details": "relative to standard bleaching solution (Dmin 0.60)"}, "[3]": {"assay": "Example 1: increase in stain during dark wet-heat storage of processed material", "details": "60° C., 70% RH, 4 weeks"}, "[4]": {"assay": "Example 2: residual silver after bleach-fixing (PBlix), fluorescent X-ray method", "details": "35° C., chelating agent with ferric nitrate"}, "[5]": {"assay": "Example 2: Blix decoloring, Dmax (R light) before and after reprocessing (PEDTA)"}, "[6]": {"assay": "Example 5: filter clogging, ageing test of the bleach-fixing solution without photosensitive material", "design": "key: ◯: scarce clogging; Δ: partial clogging; ×: Substantially the whole filter was clogging, but the liquid could pass through the filter.; ××: the complete clogging, and the liquid extremely difficultly passes through the filter", "details": "35° C., one week, without passing photosensitive material"}, "[7]": {"assay": "Example 6: residual rates of developing agent and hydroxylamine in color developer after running process", "details": "chelating agent 0.01 mol/l in color developer; for Residual amount of hydroxylamine (pH 9.85) / Residual amount of main ingredient (pH 9.85): pH 9.85, after running; for Residual amount of hydroxylamine (pH 10.25) / Residual amount of main ingredient (pH 10.25): pH 10.25, after running"}, "[8]": {"assay": "Example 6: precipitate in the color developing solution after running process", "design": "key: ◯: indicates that the solution contained no precipitate at all.; X: indicates that the larger the numeral, the larger the amount of the precipitate in the solution", "details": "color developing solution of pH 10.25 after running"}, "[9]": {"assay": "Example 8: developing agent remaining in aged color developer with added ferric and calcium ion, HPLC", "details": "1 g/l (HEDP 60%: 1.6 g/l), 5 ppm ferric ion, 150 ppm calcium ion, 38° C., 20 days"}, "[10]": {"assay": "Example 8: precipitate in the color developing solution after ageing", "design": "key: ◯: indicates that no precipitate was formed at all.; indicates that the precipitate was formed. The larger the number of X, the more serious the precipitation", "details": "1 g/l (HEDP 60%: 1.6 g/l); 5 ppm ferric ion, 150 ppm calcium ion; 38° C., 20 days"}, "[11]": {"assay": "Example 9: difference in B density between aged and fresh color developer", "details": "aged (38° C., 30 days) minus fresh developer; 0.01 mol chelating compound; 5 ppm ferric, 150 ppm calcium ion"}, "[12]": {"assay": "Example 9: precipitation in the color developer after ageing, macroscopic", "design": "key: G represents no precipitate at all.; Larger the number of B's, the larger the amount of the precipitate", "details": "38° C., 30 days; 0.01 mol chelating compound; 5 ppm ferric, 150 ppm calcium ion"}, "[13]": {"assay": "Example 10: turbidity of fixing bath with added ferric ion after ageing", "details": "3 g/l in fixing bath with ferric ion, 38° C., 30 days"}, "[14]": {"assay": "Example 11: increase in magenta stain on ageing of material processed with stabilizer", "details": "100 mg/l in stabilizer; 45° C., 70% RH, one week"}}, "data": [{"smiles": "CN(CCN(C)C(C(=O)O)C(O)C(=O)O)C(C(=O)O)C(O)C(=O)O", "note": "(stereo not drawn) [Compound 19]", "values": [{"measurement": "Amount of residual silver", "setting": "[1]", "result": 7.9, "unit": "μm/cm^2"}, {"measurement": "Bleaching fog ΔDmin (G)", "setting": "[2]", "result": 0.01}, {"measurement": "Increase in stain ΔD (G)", "setting": "[3]", "result": 0.01}, {"measurement": "Quantity of residual silver", "setting": "[4]; bleach-fixing time 20 sec", "result": 4.0, "unit": "μg/cm^2"}, {"measurement": "Quantity of residual silver", "setting": "[4]; bleach-fixing time 45 sec", "result": 1.8, "unit": "μg/cm^2"}, {"measurement": "Blix decoloring ΔDmax (R)", "setting": "[5]; bleach-fixing time 20 sec", "result": 0.00}, {"measurement": "Blix decoloring ΔDmax (R)", "setting": "[5]; bleach-fixing time 45 sec", "result": 0.00}, {"measurement": "Clogging of filter", "setting": "[6]", "result": "◯"}, {"measurement": "Residual amount of hydroxylamine (pH 9.85)", "setting": "[7]", "result": 72, "unit": "%"}, {"measurement": "Residual amount of main ingredient (pH 9.85)", "setting": "[7]", "result": 80, "unit": "%"}, {"measurement": "Residual amount of hydroxylamine (pH 10.25)", "setting": "[7]", "result": 71, "unit": "%"}, {"measurement": "Residual amount of main ingredient (pH 10.25)", "setting": "[7]", "result": 77, "unit": "%"}, {"measurement": "Precipitation", "setting": "[8]", "result": "◯"}, {"measurement": "Residual amount of main ingredient (pH 9.85)", "setting": "[9]", "result": 82, "unit": "%"}, {"measurement": "Residual amount of main ingredient (pH 10.25)", "setting": "[9]", "result": 78, "unit": "%"}, {"measurement": "Precipitation", "setting": "[10]", "result": "◯"}, {"measurement": "ΔDmax", "setting": "[11]", "result": "−0.05"}, {"measurement": "Precipitate", "setting": "[12]", "result": "G"}, {"measurement": "turbidity of the solution", "setting": "[13]", "result": "kept the transparency"}, {"measurement": "increase in the magenta stain ΔDmin", "setting": "[14]", "result": 0.11}]}, {"smiles": "CN(CCNC(CC(=O)O)C(=O)O)C(CC(=O)O)C(=O)O", "note": "(stereo not drawn) [Compound 2]", "values": [{"measurement": "Amount of residual silver", "setting": "[1]", "result": 4.4, "unit": "μm/cm^2"}, {"measurement": "Bleaching fog ΔDmin (G)", "setting": "[2]", "result": 0.00}, {"measurement": "Increase in stain ΔD (G)", "setting": "[3]", "result": 0.01}, {"measurement": "Quantity of residual silver", "setting": "[4]; bleach-fixing time 20 sec", "result": 2.0, "unit": "μg/cm^2"}, {"measurement": "Quantity of residual silver", "setting": "[4]; bleach-fixing time 45 sec", "result": 0.9, "unit": "μg/cm^2"}, {"measurement": "Blix decoloring ΔDmax (R)", "setting": "[5]; bleach-fixing time 20 sec", "result": 0.00}, {"measurement": "Blix decoloring ΔDmax (R)", "setting": "[5]; bleach-fixing time 45 sec", "result": 0.00}, {"measurement": "Clogging of filter", "setting": "[6]", "result": "◯"}, {"measurement": "Residual amount of hydroxylamine (pH 9.85)", "setting": "[7]", "result": 85, "unit": "%"}, {"measurement": "Residual amount of main ingredient (pH 9.85)", "setting": "[7]", "result": 86, "unit": "%"}, {"measurement": "Residual amount of hydroxylamine (pH 10.25)", "setting": "[7]", "result": 80, "unit": "%"}, {"measurement": "Residual amount of main ingredient (pH 10.25)", "setting": "[7]", "result": 83, "unit": "%"}, {"measurement": "Precipitation", "setting": "[8]", "result": "◯"}, {"measurement": "Residual amount of main ingredient (pH 9.85)", "setting": "[9]", "result": 87, "unit": "%"}, {"measurement": "Residual amount of main ingredient (pH 10.25)", "setting": "[9]", "result": 81, "unit": "%"}, {"measurement": "Precipitation", "setting": "[10]", "result": "◯"}, {"measurement": "ΔDmax", "setting": "[11]", "result": "−0.04"}, {"measurement": "Precipitate", "setting": "[12]", "result": "G"}, {"measurement": "turbidity of the solution", "setting": "[13]", "result": "kept the transparency"}, {"measurement": "increase in the magenta stain ΔDmin", "setting": "[14]", "result": 0.08}]}, {"smiles": "CN(CCN(C)C(CC(=O)O)C(=O)O)C(CC(=O)O)C(=O)O", "note": "(stereo not drawn) [Compound 1]", "values": [{"measurement": "Amount of residual silver", "setting": "[1]", "result": 5.2, "unit": "μm/cm^2"}, {"measurement": "Bleaching fog ΔDmin (G)", "setting": "[2]", "result": 0.00}, {"measurement": "Increase in stain ΔD (G)", "setting": "[3]", "result": 0.01}, {"measurement": "Quantity of residual silver", "setting": "[4]; bleach-fixing time 20 sec", "result": 3.1, "unit": "μg/cm^2"}, {"measurement": "Quantity of residual silver", "setting": "[4]; bleach-fixing time 45 sec", "result": 1.0, "unit": "μg/cm^2"}, {"measurement": "Blix decoloring ΔDmax (R)", "setting": "[5]; bleach-fixing time 20 sec", "result": 0.00}, {"measurement": "Blix decoloring ΔDmax (R)", "setting": "[5]; bleach-fixing time 45 sec", "result": 0.00}, {"measurement": "Clogging of filter", "setting": "[6]", "result": "◯"}, {"measurement": "Residual amount of hydroxylamine (pH 9.85)", "setting": "[7]", "result": 79, "unit": "%"}, {"measurement": "Residual amount of main ingredient (pH 9.85)", "setting": "[7]", "result": 80, "unit": "%"}, {"measurement": "Residual amount of hydroxylamine (pH 10.25)", "setting": "[7]", "result": 77, "unit": "%"}, {"measurement": "Residual amount of main ingredient (pH 10.25)", "setting": "[7]", "result": 78, "unit": "%"}, {"measurement": "Precipitation", "setting": "[8]", "result": "◯"}, {"measurement": "Residual amount of main ingredient (pH 9.85)", "setting": "[9]", "result": 83, "unit": "%"}, {"measurement": "Residual amount of main ingredient (pH 10.25)", "setting": "[9]", "result": 78, "unit": "%"}, {"measurement": "Precipitation", "setting": "[10]", "result": "◯"}, {"measurement": "ΔDmax", "setting": "[11]", "result": "−0.05"}, {"measurement": "Precipitate", "setting": "[12]", "result": "G"}, {"measurement": "turbidity of the solution", "setting": "[13]", "result": "kept the transparency"}, {"measurement": "increase in the magenta stain ΔDmin", "setting": "[14]", "result": 0.09}]}, {"smiles": "CN(CCN(CCN(C)C(CC(=O)O)C(=O)O)CC(=O)O)C(CC(=O)O)C(=O)O", "note": "(stereo not drawn) [Compound 11]", "values": [{"measurement": "Residual amount of hydroxylamine (pH 9.85)", "setting": "[7]", "result": 85, "unit": "%"}, {"measurement": "Residual amount of main ingredient (pH 9.85)", "setting": "[7]", "result": 86, "unit": "%"}, {"measurement": "Residual amount of hydroxylamine (pH 10.25)", "setting": "[7]", "result": 81, "unit": "%"}, {"measurement": "Residual amount of main ingredient (pH 10.25)", "setting": "[7]", "result": 84, "unit": "%"}, {"measurement": "Precipitation", "setting": "[8]", "result": "◯"}, {"measurement": "Residual amount of main ingredient (pH 9.85)", "setting": "[9]", "result": 89, "unit": "%"}, {"measurement": "Residual amount of main ingredient (pH 10.25)", "setting": "[9]", "result": 84, "unit": "%"}, {"measurement": "Precipitation", "setting": "[10]", "result": "◯"}, {"measurement": "ΔDmax", "setting": "[11]", "result": "−0.04"}, {"measurement": "Precipitate", "setting": "[12]", "result": "G"}, {"measurement": "turbidity of the solution", "setting": "[13]", "result": "kept the transparency"}, {"measurement": "increase in the magenta stain ΔDmin", "setting": "[14]", "result": 0.09}]}]}
